Data published in the supplement of paper PMC9233669.
This sample is rich in variants without activity.

What was measured:
biotinyl-Met-oxazolone = assay: self-aminoacylation, catalytic enhancement (BMO) (fold over background); higher = more active; k-Seq, kA / k0A0; sequences stand for … in GGGAAUGGAUCCACAUCUACGAAUUC…UUCACUGCAGACUUGACGAAGCUG
Summary of the method: (§1)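 Working in 50 μL HEPES/NaCl/KCl/MgCl2/CaCl2 buffer with 5% acetonitrile at pH 6.9–7.0, mutagenized RNA pools (0.43 μM; 21-nt variable region) were reacted with 2–1250 μM of each biotinyl-aminoacyl-oxazolone for 90 minutes at room temperature. Streptavidin capture followed, with quantification by triplicate qPCR and Illumina sequencing. Catalytic enhancement is reported as median kA over the uncatalyzed rate, the low-activity peak of a bimodal Gaussian fit to the data.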

biotinyl-Trp-oxazolone = assay: self-aminoacylation, catalytic enhancement (BWO) (fold over background); higher = more active; k-Seq, kA / k0A0; sequences stand for … in GGGAAUGGAUCCACAUCUACGAAUUC…UUCACUGCAGACUUGACGAAGCUG
Summary of the method: as §1

biotinyl-Leu-oxazolone = assay: self-aminoacylation, catalytic enhancement (BLO) (fold over background); higher = more active; k-Seq, kA / k0A0; sequences stand for … in GGGAAUGGAUCCACAUCUACGAAUUC…UUCACUGCAGACUUGACGAAGCUG
Summary of the method: as §1

biotinyl-Val-oxazolone = assay: self-aminoacylation, catalytic enhancement (BVO) (fold over background); higher = more active; k-Seq, kA / k0A0; sequences stand for … in GGGAAUGGAUCCACAUCUACGAAUUC…UUCACUGCAGACUUGACGAAGCUG
Summary of the method: as §1

biotinyl-Ile-oxazolone = assay: self-aminoacylation, catalytic enhancement (BIO) (fold over background); higher = more active; k-Seq, kA / k0A0; sequences stand for … in GGGAAUGGAUCCACAUCUACGAAUUC…UUCACUGCAGACUUGACGAAGCUG
Summary of the method: as §1

biotinyl-Phe-oxazolone = assay: self-aminoacylation, catalytic enhancement (BFO) (fold over background); higher = more active; k-Seq, kA / k0A0; sequences stand for … in GGGAAUGGAUCCACAUCUACGAAUUC…UUCACUGCAGACUUGACGAAGCUG
Summary of the method: as §1

Row | Sequence | self-aminoacylation (biotinyl-Met-oxazolone) | self-aminoacylation (biotinyl-Trp-oxazolone) | self-aminoacylation (biotinyl-Leu-oxazolone) | self-aminoacylation (biotinyl-Val-oxazolone) | self-aminoacylation (biotinyl-Ile-oxazolone) | self-aminoacylation (biotinyl-Phe-oxazolone)
1 | AAGUUUGCUAGUAGGCGCAAG [Fam3.1 aminoacylation ribozyme variant] | 0.634 | 0.852 | 0.838 | 0.846 | 0.793 | 0.91
2 | AAGUUUGCUAGUAGUCGAAAG [Fam3.1 aminoacylation ribozyme variant] | 0.742 | 0.863 | 0.989 | 0.776 | 0.979 | 1.02
3 | AAGUUUGCUAGUAGUCGGAAG [Fam3.1 aminoacylation ribozyme variant] | 0.942 | 0.725 | 1.23 | 0.826 | 0.786 | 1.32
4 | AAGUUUGCUAUUAGUCGCAAC [Fam3.1 aminoacylation ribozyme variant] | 0.848 | 0.879 | 1.14 | 1.04 | 1.16 | 0.969
5 | AAGUUUGCUAUUAGUCGCACG [Fam3.1 aminoacylation ribozyme variant] | 0.883 | 1.34 | 1.08 | 0.747 | 0.955 | 1.21
6 | AAGUUUGCUAUUAGUCGGAAG [Fam3.1 aminoacylation ribozyme variant] | 1.2 | 1.66 | 0.853 | 0.974 | 0.992 | 0.956
7 | AAGUUUGCUAUUGGUCGCAAG [Fam3.1 aminoacylation ribozyme variant] | 0.756 | 0.66 | 1.05 | 0.76 | 0.787 | 1.46
8 | AAGUUUGCUCAUAGUCACAAG [Fam3.1 aminoacylation ribozyme variant] | 0.978 | 1.07 | 0.777 | 0.95 | 1.02 | 1.62
9 | AAGUUUGCUCAUAGUCGCAAC [Fam3.1 aminoacylation ribozyme variant] | 1.11 | 1.19 | 1.47 | 1 | 1.06 | 1.08
10 | AAGUUUGCUCAUAGUCGCAAU [Fam3.1 aminoacylation ribozyme variant] | 1.52 | 1.41 | 1.33 | 1.15 | 1.53 | 1.78
11 | AAGUUUGCUCAUAGUCGCGAG [Fam3.1 aminoacylation ribozyme variant] | 1.32 | 1.34 | 1.15 | 1.09 | 1.2 | 1.02
12 | AAGUUUGCUCAUGGUCGCAAG [Fam3.1 aminoacylation ribozyme variant] | 0.811 | 0.989 | 0.883 | 0.795 | 0.928 | 1.06
13 | AAGUUUGCUGAUCGUCGCAAG [Fam3.1 aminoacylation ribozyme variant] | 0.781 | 1.31 | 0.714 | 0.838 | 0.788 | 0.662
14 | AAGUUUGCUUAUAGUCCCAAG [Fam3.1 aminoacylation ribozyme variant] | 0.964 | 0.859 | 0.788 | 1.06 | 1.06 | 0.875
15 | AAGUUUGCUUAUAGUCGAAAG [Fam3.1 aminoacylation ribozyme variant] | 0.828 | 0.991 | 0.795 | 0.919 | 0.883 | 0.839
16 | AAGUUUGCUUAUAGUCGCAAA [Fam3.1 aminoacylation ribozyme variant] | 1.38 | 1.67 | 1.42 | 1.31 | 1.47 | 2.38
17 | AAGUUUGCUUAUAGUCGCUAG [Fam3.1 aminoacylation ribozyme variant] | 0.705 | 0.61 | 0.628 | 0.646 | 0.884 | 1
18 | AAGUUUGGUAAUAGUCGCGAG [Fam3.1 aminoacylation ribozyme variant] | 1.56 | 1.65 | 1.61 | 1.51 | 1.98 | 2.51
19 | AAGUUUGGUAAUGGUCGCAAG [Fam3.1 aminoacylation ribozyme variant] | 0.943 | 1.02 | 0.866 | 0.977 | 0.939 | 1.17
20 | AAGUUUGGUAGUAGUCGCAAG [Fam3.1 aminoacylation ribozyme variant] | 0.953 | 0.982 | 0.994 | 0.913 | 0.986 | 1.43
21 | AAGUUUGUUAAUAGUCGCGAG [Fam3.1 aminoacylation ribozyme variant] | 1.5 | 1.57 | 1.52 | 1.14 | 1.39 | 1.35
22 | AAGUUUGUUAAUAGUGGCAAG [Fam3.1 aminoacylation ribozyme variant] | 0.694 | 0.589 | 0.626 | 0.566 | 0.637 | 0.879
23 | AAGUUUGUUAAUAGUUGCAAG [Fam3.1 aminoacylation ribozyme variant] | 1.06 | 0.978 | 0.996 | 0.995 | 1.05 | 1.44
